Assay results as given in doi:10.1101/162958.
Where a chain is given by its changes, count along the chain named. No constants are given. Whether binding was seen depends on the method and setting. Binding seen in cells or lysates may run through a third protein. Some entries that bind do so weakly or less than the wild type. Tags and fused reporters may be left off the sequences shown.

What was measured:
[1] = target: T1, C-terminally myc-epitope tagged Stx3 (membrane-anchored Stx3A) (human) (UniProt Q13277); assay: co-IP
T1 sequence: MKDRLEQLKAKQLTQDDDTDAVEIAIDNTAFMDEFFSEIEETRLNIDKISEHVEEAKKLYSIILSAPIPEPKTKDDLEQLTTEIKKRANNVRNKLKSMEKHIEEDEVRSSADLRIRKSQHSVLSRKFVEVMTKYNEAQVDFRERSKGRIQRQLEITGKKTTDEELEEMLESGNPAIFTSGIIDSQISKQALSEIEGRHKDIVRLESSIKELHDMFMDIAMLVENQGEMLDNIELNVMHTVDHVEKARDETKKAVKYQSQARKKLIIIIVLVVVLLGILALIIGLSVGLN

[2] = target: T2, open mutant Stx3(L165A/E166A), myc-tagged (human) (UniProt Q13277); assay: co-IP
T2 sequence: T1 sequence with L165A, E166A

B1: RanBP5 (in HEK293T lysate) (protein, UniProt O00410 1-1097)
chain: MAAAAAEQQQFYLLLGNLLSPDNVVRKQAEETYENIPGQSKITFLLQAIRNTTAAEEARQMAAVLLRRLLSSAFDEVYPALPSDVQTAIKSELLMIIQMETQSSMRKKVCDIAAELARNLIDEDGNNQWPEGLKFLFDSVSSQNVGLREAALHIFWNFPGIFGNQQQHYLDVIKRMLVQCMQDQEHPSIRTLSARATAAFILANEHNVALFKHFADLLPGFLQAVNDSCYQNDDSVLKSLVEIADTVPKYLRPHLEATLQLSLKLCGDTSLNNMQRQLALEVIVTLSETAAAMLRKHTNIVAQTIPQMLAMMVDLEEDEDWANADELEDDDFDSNAVAGESALDRMACGLGGKLVLPMIKEHIMQMLQNPDWKYRHAGLMALSAIGEGCHQQMEGILNEIVNFVLLFLQDPHPRVRYAACNAVGQMATDFAPGFQKKFHEKVIAALLQTMEDQGNQRVQAHAAAALINFTEDCPKSLLIPYLDNLVKHLHSIMVLKLQELIQKGTKLVLEQVVTSIASVADTAEEKFVPYYDLFMPSLKHIVENAVQKELRLLRGKTIECISLIGLAVGKEKFMQDASDVMQLLLKTQTDFNDMEDDDPQISYMISAWARMCKILGKEFQQYLPVVMGPLMKTASIKPEVALLDTQDMENMSDDDGWEFVNLGDQQSFGIKTAGLEEKSTACQMLVCYAKELKEGFVEYTEQVVKLMVPLLKFYFHDGVRVAAAESMPLLLECARVRGPEYLTQMWHFMCDALIKAIGTEPDSDVLSEIMHSFAKCIEVMGDGCLNNEHFEELGGILKAKLEEHFKNQELRQVKRQDEDYDEQVEESLQDEDDNDVYILTKVSDILHSIFSSYKEKVLPWFEQLLPLIVNLICPHRPWPDRQWGLCIFDDVIEHCSPASFKYAEYFLRPMLQYVCDNSPEVRQAAAYGLGVMAQYGGDNYRPFCTEALPLLVRVIQSADSKTKENVNATENCISAVGKIMKFKPDCVNVEEVLPHWLSWLPLHEDKEEAVQTFNYLCDLIESNHPIVLGPNNTNLPKIFSIIAEGEMHEAIKHEDPCAKRLANVVRQVQTSGGLWTECIAQLSPEQQAAIQELLNSA
With B1 the binding [1] was “binds” and the binding [2] was “binds”.
